Screening data, single-dose tests

Toxoplasma: 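Assay of Toxoplasma gondii numbers, read through their beta-galactosidase reporter with a colour substrate. Tested at 10 µM. Higher reads as fewer parasites (inferred from which compounds were picked for retests). Of about 67,000 compounds tested this way, about 260 (0.38%) reached 50% or more in at least one test.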
T. brucei: 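Whole-parasite assay of Trypanosoma brucei over 72 hours; the read-out is not stated. Concentration: 30 µM. The record gives no direction; compounds that gave an IC50 in retests scored well above the rest, so higher reads as stronger inhibition. Values scatter widely below zero; nearly all retest evidence comes from the higher of the two concentrations used. Size under these conditions: about 64,000 compounds, about 940 of them at 50% or above in at least one test.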

The filed quantity is “Percent Effect” (%). How 0% and 100% were set is not recorded. Most values in the screen are low, and negative values occur. Compounds were drawn at random from those tested, without regard to their results.

CCOc1ncnc2c1CCN(S(=O)(=O)C1CC1)CC2 read Toxoplasma: -1.134%; T. brucei: -57.46%.
CC(C)(C)n1cc(NC(=O)C2CN(Cc3ccccc3)CCO2)cn1 (stereo unspecified) read Toxoplasma: 7.558%; T. brucei: -16.3%.
CN1CCCC1c1cccc(Cc2ccc(F)cc2)n1 (stereo unspecified) read Toxoplasma: 14%; T. brucei: 99.38%.
CCN1C(=O)CCCC12CCCN(C(=O)c1ccsc1)C2 (stereo unspecified) read Toxoplasma: -6.436%; T. brucei: -51.7%.
COCC(=O)N1CCCC1(C)c1nc(C)cc(O)n1 (stereo unspecified) read Toxoplasma: 23.23%; T. brucei: -7.935%.
[H][C@]12CNC[C@@]1(C(=O)N1CCN(c3ncccc3C#N)CC1)CN(C)C2 read Toxoplasma: 4.918%; T. brucei: -7.324%.
[H][C@@]12CNCC[C@]1(O)CCN(CCOc1ccc(C)cc1OC)C2 read Toxoplasma: 2.197%; T. brucei: -98.54%.
CCNC(=O)N(C)C1CCCc2nc(C)sc21 (stereo unspecified) read Toxoplasma: -1.073%; T. brucei: -9.738%.
Cc1cc(C)n(-c2nc(C(=O)NCCS(=O)(=O)N3CCCCC3)cs2)n1 read Toxoplasma: -10.01%; T. brucei: -14.96%.
CC(C)c1n[nH]c(C2CN(C(=O)c3cccc4cn[nH]c34)CCO2)n1 (stereo unspecified) read Toxoplasma: -4.708%; T. brucei: 28.63%.
O=C(c1cc(C2CCCCN2CCO)n[nH]1)N1CCOCC1.O=CO (stereo unspecified) read Toxoplasma: -21.01%; T. brucei: -18.9%.
CC(C)N1CCC(NC(=O)NC2CCOc3ccc(Br)cc32)CC1 (stereo unspecified) read Toxoplasma: -1.725%; T. brucei: -5.065%.
NC(=O)C1CCCN1C1CCN(C(=O)c2cccc3c2OCO3)CC1 (stereo unspecified) read Toxoplasma: 16.6%; T. brucei: -1.546%.
CCc1c(C(=O)NC2CCS(=O)(=O)C2)cnn1-c1ccc(C)cc1 (stereo unspecified) read Toxoplasma: -6.082%; T. brucei: -2.042%.
Cn1cc(CN2CCCn3cnc(COCC4CC4)c3C2)cn1 read Toxoplasma: 7.906%; T. brucei: 29.98%.
Cc1nc(C2CCN(c3ccccc3)CC2)no1 read Toxoplasma: 27.19%; T. brucei: -42.08%.
NC(=O)C1CCCN(c2ncnc3c2Cc2ccccc2OC3)C1 (stereo unspecified) read Toxoplasma: -24.47%.
CC(C)(C(=O)NCC1CCN(Cc2ncc[nH]2)C1)c1ccccc1 (stereo unspecified) read Toxoplasma: 13.87%; T. brucei: -71.05%.
O=C1CSc2ccccc2N1CC(=O)N1CCCCC1c1nccs1 (stereo unspecified) read Toxoplasma: -1.46%; T. brucei: -13.99%.
O=C1CC2(CCCC2)CN1CCOc1ccc(F)cc1 read Toxoplasma: 18.24%; T. brucei: -20.42%.
NC[C@H]1CC[C@H](C(NC(=O)C2CC2)c2ccccn2)CC1 (stereo partly specified) read Toxoplasma: -18.47%; T. brucei: -27.22%.
Cc1nc(C)n(C2CCCN(C(=O)CCOC(C)C)C2)n1 (stereo unspecified) read Toxoplasma: -7.983%; T. brucei: -27.02%.
Cc1ccc([C@@H]2CN(S(=O)(=O)c3cccs3)C[C@H]2N(C)C)cc1 read Toxoplasma: 3.349%; T. brucei: 47.59%.
Cc1cc(C(=O)N2CCN(Cn3cc(Cl)cn3)CC2)on1 read Toxoplasma: -0.9859%; T. brucei: -4.454%.
Cc1ccc(N2CCCN(C(=O)c3cc(Cl)c[nH]3)CC2)nn1 read Toxoplasma: 1.678%; T. brucei: -10.92%.
Cc1ccccc1C(=O)N1CCOC2(CNCCOC2)C1 (stereo unspecified) read Toxoplasma: -1.962%; T. brucei: -15.26%.
COCc1nc(CNC2CCSC2)no1 (stereo unspecified) read Toxoplasma: -7.271%; T. brucei: -23.17%.
COc1ccc(F)cc1S(=O)(=O)N1CCC(Oc2ccc(Cl)cn2)CC1 read Toxoplasma: 4.762%; T. brucei: 10.93%.

3 of the entries, repeated:

| Compound | Toxoplasma | T. brucei |
|---|---|---|
| `COCC(=O)N1CCCC1(C)c1nc(C)cc(O)n1` (stereo unspecified) | 23.23 | -7.935 |
| `Cn1cc(CN2CCCn3cnc(COCC4CC4)c3C2)cn1` | 7.906 | 29.98 |
| `CCN1C(=O)CCCC12CCCN(C(=O)c1ccsc1)C2` (stereo unspecified) | -6.436 | -51.7 |

Measurements from “University of Dundee, Small-Polar-MMV Screening Library” (2021), ChEMBL document CHEMBL3988442.